In patent US6806276B2, “2-oxoquinoline compounds and pharmaceutical uses thereof” (Japan Tobacco Inc., priority 1999, dated 2004):
For at least one compound, name, drawing or mass did not settle the structure.

By UniProt entry, the sequences of proteins in these tests, tags left out.
UniProt P34972, whole entry: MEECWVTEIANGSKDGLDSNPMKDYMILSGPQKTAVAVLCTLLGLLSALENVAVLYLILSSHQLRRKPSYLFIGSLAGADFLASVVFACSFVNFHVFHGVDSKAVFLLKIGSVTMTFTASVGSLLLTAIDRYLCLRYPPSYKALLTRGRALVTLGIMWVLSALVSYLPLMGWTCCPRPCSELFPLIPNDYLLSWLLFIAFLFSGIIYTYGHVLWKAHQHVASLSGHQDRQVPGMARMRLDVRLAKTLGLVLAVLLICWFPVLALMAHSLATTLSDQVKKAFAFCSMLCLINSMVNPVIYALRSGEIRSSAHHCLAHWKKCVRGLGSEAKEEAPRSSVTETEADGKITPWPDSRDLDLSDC

Biological target: T1, human peripheral type cannabinoid receptor (hCB2) (Homo sapiens, UniProt P34972)
T1 construct: expressed in transfected cells; host or cells: CHO cells
Assay: Binding assay (in vitro), [3H]Win55212-2 displacement, membrane fractions of human CB2-CHO
Conditions: indicator of selectivity for peripheral type receptors

Row | Compound | C/S (Ki central type receptors / Ki peripheral type receptors)
1 | CCCCCOc1cc2cc(C(=O)O)c(=O)[nH]c2cc1OC [Example 2-5, 7-methoxy-2-oxo-6-pentyloxy-1,2-dihydroquinoline-3-carboxylic acid] | 2170
2 | CCCCOc1c(OC)ccc2cc(CO)c(=O)[nH]c12 [Example 5-1, 8-butoxy-3-hydroxy methyl-7-methoxy-2-oxo-1,2-dihydroquinoline] | 1525
